# The other results are listed elsewhere or left out.
# Key:
# Experiment in all cases: glycan array binding signal (z-score within array); higher = stronger binding
# Conditions in all cases: glycan notation: IUPAC condensed, linker removed
# GalNAc(b1-6)GalNAc = target: GalNAc(b1-6)GalNAc
# How it was run: (§1)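 The Consortium for Functional Glycomics database supplied 3228 glycan arrays, of which those lacking an available protein sequence were dropped. The binding signal, a within-array Z-score, was averaged across arrays of the same protein sequence and across linkers. Negative scores can be read as non-binding.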
# Glc(a1-4)Glc = target: Glc(a1-4)Glc
# How it was run: as §1
# [1] = target: Glc(a1-4)Glc(a1-4)Glc(a1-4)Glc
# How it was run: as §1
# Glc(a1-6)Glc(a1-6)Glc = target: Glc(a1-6)Glc(a1-6)Glc
# How it was run: as §1
# [2] = target: Glc(a1-6)Glc(a1-6)Glc(a1-6)Glc
# How it was run: as §1
# Glc(b1-4)Glc = target: Glc(b1-4)Glc
# How it was run: as §1
# Glc(b1-6)Glc = target: Glc(b1-6)Glc
# How it was run: as §1
# GlcA(b1-3)Gal = target: GlcA(b1-3)Gal
# How it was run: as §1
# GlcA(b1-3)GlcNAc = target: GlcA(b1-3)GlcNAc
# How it was run: as §1
# GlcA(b1-6)Gal = target: GlcA(b1-6)Gal
# How it was run: as §1
# [3] = target: GlcNAc(a1-3)Gal(b1-4)GlcNAc
# How it was run: as §1
# [4] = target: GlcNAc(a1-4)Gal(b1-3)GlcNAc
# How it was run: as §1
# [5] = target: GlcNAc(a1-4)Gal(b1-4)GalNAc
# How it was run: as §1
# [6] = target: GlcNAc(a1-4)Gal(b1-4)GlcNAc
# How it was run: as §1
# [7] = target: GlcNAc(a1-4)Gal(b1-4)GlcNAc(b1-3)Gal(b1-4)Glc
# How it was run: as §1
# [8] = target: GlcNAc(a1-4)Gal(b1-4)GlcNAc(b1-3)Gal(b1-4)GlcNAc
# How it was run: as §1
# [9] = target: GlcNAc(a1-4)Gal(b1-4)GlcNAc(b1-3)Gal(b1-4)GlcNAc(b1-3)Gal(b1-4)GlcNAc
# How it was run: as §1
# [10] = target: GlcNAc(a1-4)Gal(b1-4)GlcNAc(b1-3)Gal(b1-4)[Fuc(a1-3)]GlcNAc(b1-3)Gal(b1-4)[Fuc(a1-3)]GlcNAc
# How it was run: as §1
# [11] = target: GlcNAc(a1-6)Gal(b1-4)GlcNAc
# How it was run: as §1
# [12] = target: GlcNAc(b1-2)Gal(b1-3)GalNAc
# How it was run: as §1
# [13] = target: GlcNAc(b1-2)Man(a1-3)[GlcNAc(b1-2)Man(a1-6)]Man(b1-4)GlcNAc(b1-4)GlcNAc
# How it was run: as §1
# [14] = target: GlcNAc(b1-2)Man(a1-3)[GlcNAc(b1-2)Man(a1-6)]Man(b1-4)GlcNAc(b1-4)[Fuc(a1-6)]GlcNAc
# How it was run: as §1
# [15] = target: GlcNAc(b1-2)Man(a1-3)[GlcNAc(b1-4)][GlcNAc(b1-2)Man(a1-6)]Man(b1-4)GlcNAc(b1-4)GlcNAc
# How it was run: as §1
# [16] = target: GlcNAc(b1-2)[GlcNAc(b1-4)]Man(a1-3)[GlcNAc(b1-2)Man(a1-6)]Man(b1-4)GlcNAc(b1-4)GlcNAc
# How it was run: as §1
# [17] = target: GlcNAc(b1-2)[GlcNAc(b1-4)]Man(a1-3)[GlcNAc(b1-4)][GlcNAc(b1-2)Man(a1-6)]Man(b1-4)GlcNAc(b1-4)GlcNAc
# How it was run: as §1
# [18] = target: GlcNAc(b1-2)[GlcNAc(b1-4)]Man(a1-3)[GlcNAc(b1-4)][GlcNAc(b1-2)[GlcNAc(b1-6)]Man(a1-6)]Man(b1-4)GlcNAc(b1-4)GlcNAc
# How it was run: as §1
# [19] = target: GlcNAc(b1-2)[GlcNAc(b1-6)]Man(a1-6)[GlcNAc(b1-2)Man(a1-3)]Man(b1-4)GlcNAc(b1-4)GlcNAc
# How it was run: as §1
# [20] = target: GlcNAc(b1-2)[GlcNAc(b1-6)]Man(a1-6)[GlcNAc(b1-2)Man(a1-3)][GlcNAc(b1-4)]Man(b1-4)GlcNAc(b1-4)GlcNAc
# How it was run: as §1
# GlcNAc(b1-3)Gal = target: GlcNAc(b1-3)Gal
# How it was run: as §1
# [21] = target: GlcNAc(b1-3)Gal(b1-3)GalNAc
# How it was run: as §1
# GlcNAc(b1-3)Gal(b1-4)Glc = target: GlcNAc(b1-3)Gal(b1-4)Glc
# How it was run: as §1
# [22] = target: GlcNAc(b1-3)Gal(b1-4)GlcNAc
# How it was run: as §1
# [23] = target: GlcNAc(b1-3)Gal(b1-4)GlcNAc(b1-3)Gal(b1-4)GlcNAc
# How it was run: as §1
# GlcNAc(b1-3)GalNAc = target: GlcNAc(b1-3)GalNAc
# How it was run: as §1
# GlcNAc(b1-3)Man = target: GlcNAc(b1-3)Man
# How it was run: as §1
# [24] = target: GlcNAc(b1-3)[GlcNAc(b1-4)][GlcNAc(b1-6)]GlcNAc
# How it was run: as §1
# [25] = target: GlcNAc(b1-3)[GlcNAc(b1-6)]Gal(b1-4)GlcNAc
# How it was run: as §1
# [26] = target: GlcNAc(b1-3)[GlcNAc(b1-6)]GalNAc
# How it was run: as §1
# [27] = target: GlcNAc(b1-4)Gal(b1-4)GlcNAc
# How it was run: as §1
# GlcNAc(b1-4)GlcNAc = target: GlcNAc(b1-4)GlcNAc
# How it was run: as §1
# [28] = target: GlcNAc(b1-4)GlcNAc(b1-4)GlcNAc
# How it was run: as §1
# [29] = target: GlcNAc(b1-4)GlcNAc(b1-4)GlcNAc(b1-4)GlcNAc(b1-4)GlcNAc
# How it was run: as §1
# [30] = target: GlcNAc(b1-4)GlcNAc(b1-4)GlcNAc(b1-4)GlcNAc(b1-4)GlcNAc(b1-4)GlcNAc
# How it was run: as §1
# [31] = target: GlcNAc(b1-4)[GlcNAc(b1-6)]GalNAc
# How it was run: as §1
# [32] = target: GlcNAc(b1-6)Gal(b1-4)GlcNAc
# How it was run: as §1
binder,measurement,setting,value
"Flo11 (Saccharomyces cerevisiae), P08640 (protein) MQRPFLLAYLVLSLLFNSALGFPTALVPRGSSEGTSCNSIVNGCPNLDFNWHMDQQNIMQYTLDVTSVSWVQDNTYQITIHVKGKENIDLKYLWSLKIIGVTGPKGTVQLYGYNENTYLIDNPTDFTATFEVYATQDVNSCQVWMPNFQIQFEYLQGSAAQYASSWQWGTTSFDLSTGCNNYDNQGHSQTDFPGFYWNIDCDNNCGGTKSSTTTSSTSESSTTTSSTSESSTTTSSTSESSTTTSSTSESSTSSSTTAPATPTTTSCTKEKPTPPTTTSCTKEKPTPPHHDTTPCTKKKTTTSKTCTKKTTTPVPTPSSSTTESSSAPVPTPSSSTTESSSAPVTSSTTESSSAPVPTPSSSTTESSSAPVTSSTTESSSAPVTSSTTESSSAPVPTPSSSTTESSSAPVTSSTTESSSAPVTSSTTESSSAPVTSSTTESSSAPVTSSTTESSSAPVPTPSSSTTESSSAPVTSSTTESSSAPVPTPSSSTTESSSAPVTSSTTESSSAPVPTPSSSTTESSSAPAPTPSSSTTESSSAPVTSSTTESSSAPVPTPSSSTTESSSTPVTSSTTESSSAPVPTPSSSTTESSSAPVPTPSSSTTESSSAPAPTPSSSTTESSSAPVTSSTTESSSAPVPTPSSSTTESSSAPVPTPSSSTTESSSAPVPTPSSSTTESSSAPVTSSTTESSSAPVTSSTTESSSAPVPTPSSSTTESSSAPVPTPSSSTTESSSAPVPTPSSSTTESSSAPVTSSTTESSSAPVPTPSSSTTESSSAPVPTPSSSTTESSSAPVPTPSSSTTESSVAPVPTPSSSSNITSSAPSSTPFSSSTESSSVPVPTPSSSTTESSSAPVSSSTTESSVAPVPTPSSSSNITSSAPSSIPFSSTTESFSTGTTVTPSSSKYPGSQTETSVSSTTETTIVPTKTTTSVTTPSTTTITTTVCSTGTNSAGETTSGCSPKTVTTTVPTTTTTSVTTSSTTTITTTVCSTGTNSAGETTSGCSPKTITTTVPCSTSPSETASESTTTSPTTPVTTVVSTTVVTTEYSTSTKPGGEITTTFVTKNIPTTYLTTIAPTPSVTTVTNFTPTTITTTVCSTGTNSAGETTSGCSPKTVTTTVPCSTGTGEYTTEATTLVTTAVTTTVVTTESSTGTNSAGKTTTGYTTKSVPTTYVTTLAPSAPVTPATNAVPTTITTTECSAATNAAGETTSVCSAKTIVSSASAGENTAPSATTPVTTAIPTTVITTESSVGTNSAGETTTGYTTKSIPTTYITTLIPGSNGAKNYETVATATNPISIKTTSQLATTASASSVAPVVTSPSLTGPLQSASGSAVATYSVPSISSTYQGAANIKVLGNFMWLLLALPVVF",glycan array binding signal (z-score),GalNAc(b1-6)GalNAc,-1.03
same,glycan array binding signal (z-score),Glc(a1-4)Glc,-0.868
same,glycan array binding signal (z-score),[1],0.7
same,glycan array binding signal (z-score),Glc(a1-6)Glc(a1-6)Glc,0.761
same,glycan array binding signal (z-score),[2],-0.394
same,glycan array binding signal (z-score),Glc(b1-4)Glc,-0.613
same,glycan array binding signal (z-score),Glc(b1-6)Glc,-1.13
same,glycan array binding signal (z-score),GlcA(b1-3)Gal,0.135
same,glycan array binding signal (z-score),GlcA(b1-3)GlcNAc,-0.751
same,glycan array binding signal (z-score),GlcA(b1-6)Gal,-0.723
same,glycan array binding signal (z-score),[3],0.274
same,glycan array binding signal (z-score),[4],0.653
same,glycan array binding signal (z-score),[5],-0.216
same,glycan array binding signal (z-score),[6],-0.057
same,glycan array binding signal (z-score),[7],0.685
same,glycan array binding signal (z-score),[8],6.8
same,glycan array binding signal (z-score),[9],0.576
same,glycan array binding signal (z-score),[10],3.01
same,glycan array binding signal (z-score),[11],-0.397
same,glycan array binding signal (z-score),[12],0.689
same,glycan array binding signal (z-score),[13],1.46
same,glycan array binding signal (z-score),[14],3.49
same,glycan array binding signal (z-score),[15],-0.197
same,glycan array binding signal (z-score),[16],-0.017
same,glycan array binding signal (z-score),[17],-0.119
same,glycan array binding signal (z-score),[18],0.283
same,glycan array binding signal (z-score),[19],0.744
same,glycan array binding signal (z-score),[20],0.541
same,glycan array binding signal (z-score),GlcNAc(b1-3)Gal,-1.25
same,glycan array binding signal (z-score),[21],1.09
same,glycan array binding signal (z-score),GlcNAc(b1-3)Gal(b1-4)Glc,-1.46
same,glycan array binding signal (z-score),[22],0.267
same,glycan array binding signal (z-score),[23],0.303
same,glycan array binding signal (z-score),GlcNAc(b1-3)GalNAc,0.245
same,glycan array binding signal (z-score),GlcNAc(b1-3)Man,0.315
same,glycan array binding signal (z-score),[24],0.096
same,glycan array binding signal (z-score),[25],-0.167
same,glycan array binding signal (z-score),[26],-0.35
same,glycan array binding signal (z-score),[27],-0.74
same,glycan array binding signal (z-score),GlcNAc(b1-4)GlcNAc,-0.781
same,glycan array binding signal (z-score),[28],-0.791
same,glycan array binding signal (z-score),[29],-0.764
same,glycan array binding signal (z-score),[30],-0.436
same,glycan array binding signal (z-score),[31],0.51
same,glycan array binding signal (z-score),[32],0.507

# As a working copy, part of the list above:
binder,measurement,setting,value
"Flo11 (Saccharomyces cerevisiae), P08640 (protein) MQRPFLLAYLVLSLLFNSALGFPTALVPRGSSEGTSCNSIVNGCPNLDFNWHMDQQNIMQYTLDVTSVSWVQDNTYQITIHVKGKENIDLKYLWSLKIIGVTGPKGTVQLYGYNENTYLIDNPTDFTATFEVYATQDVNSCQVWMPNFQIQFEYLQGSAAQYASSWQWGTTSFDLSTGCNNYDNQGHSQTDFPGFYWNIDCDNNCGGTKSSTTTSSTSESSTTTSSTSESSTTTSSTSESSTTTSSTSESSTSSSTTAPATPTTTSCTKEKPTPPTTTSCTKEKPTPPHHDTTPCTKKKTTTSKTCTKKTTTPVPTPSSSTTESSSAPVPTPSSSTTESSSAPVTSSTTESSSAPVPTPSSSTTESSSAPVTSSTTESSSAPVTSSTTESSSAPVPTPSSSTTESSSAPVTSSTTESSSAPVTSSTTESSSAPVTSSTTESSSAPVTSSTTESSSAPVPTPSSSTTESSSAPVTSSTTESSSAPVPTPSSSTTESSSAPVTSSTTESSSAPVPTPSSSTTESSSAPAPTPSSSTTESSSAPVTSSTTESSSAPVPTPSSSTTESSSTPVTSSTTESSSAPVPTPSSSTTESSSAPVPTPSSSTTESSSAPAPTPSSSTTESSSAPVTSSTTESSSAPVPTPSSSTTESSSAPVPTPSSSTTESSSAPVPTPSSSTTESSSAPVTSSTTESSSAPVTSSTTESSSAPVPTPSSSTTESSSAPVPTPSSSTTESSSAPVPTPSSSTTESSSAPVTSSTTESSSAPVPTPSSSTTESSSAPVPTPSSSTTESSSAPVPTPSSSTTESSVAPVPTPSSSSNITSSAPSSTPFSSSTESSSVPVPTPSSSTTESSSAPVSSSTTESSVAPVPTPSSSSNITSSAPSSIPFSSTTESFSTGTTVTPSSSKYPGSQTETSVSSTTETTIVPTKTTTSVTTPSTTTITTTVCSTGTNSAGETTSGCSPKTVTTTVPTTTTTSVTTSSTTTITTTVCSTGTNSAGETTSGCSPKTITTTVPCSTSPSETASESTTTSPTTPVTTVVSTTVVTTEYSTSTKPGGEITTTFVTKNIPTTYLTTIAPTPSVTTVTNFTPTTITTTVCSTGTNSAGETTSGCSPKTVTTTVPCSTGTGEYTTEATTLVTTAVTTTVVTTESSTGTNSAGKTTTGYTTKSVPTTYVTTLAPSAPVTPATNAVPTTITTTECSAATNAAGETTSVCSAKTIVSSASAGENTAPSATTPVTTAIPTTVITTESSVGTNSAGETTTGYTTKSIPTTYITTLIPGSNGAKNYETVATATNPISIKTTSQLATTASASSVAPVVTSPSLTGPLQSASGSAVATYSVPSISSTYQGAANIKVLGNFMWLLLALPVVF",glycan array binding signal (z-score),[22],0.267
same,glycan array binding signal (z-score),[23],0.303
same,glycan array binding signal (z-score),GlcNAc(b1-3)GalNAc,0.245
